These are yes or no findings as the source states them, for the method shown. In cells and extracts the contact can be indirect. For part of these data: Binding calls can cover weak binding; strength is not graded here. Tags and fused reporters may be left off the sequences shown.
Tests used:
[1] = biological target: T1, GST-NCL-NTD(1-110) (rabbit) (UniProt G1TVT0); experiment: pull-down
T1 sequence: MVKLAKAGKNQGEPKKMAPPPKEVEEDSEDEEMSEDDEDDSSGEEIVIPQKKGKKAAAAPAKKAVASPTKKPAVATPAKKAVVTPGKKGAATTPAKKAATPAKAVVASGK

[2] = biological target: T2, GST-NCL-NTD(215-318) (rabbit) (UniProt G1TVT0); experiment: condition: 25 μM GST fusion protein, 3-fold molar excess of prey
T2 sequence: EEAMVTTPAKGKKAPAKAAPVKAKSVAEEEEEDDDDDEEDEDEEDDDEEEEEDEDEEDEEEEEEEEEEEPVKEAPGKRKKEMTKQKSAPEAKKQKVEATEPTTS

[3] = biological target: T3, GST-NCL-NTD(111-214) (rabbit) (UniProt G1TVT0); experiment: as above
T3 sequence: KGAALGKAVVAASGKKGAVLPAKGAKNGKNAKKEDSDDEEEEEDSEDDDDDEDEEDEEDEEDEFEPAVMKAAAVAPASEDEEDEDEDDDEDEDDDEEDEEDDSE

## p16-myc
[1]
  binding: binds
[2]
  binding: no binding
[3]
  binding: no binding
